Data: PubChem BioAssay AID2685 (National Center for Advancing Translational Sciences (NCATS), 2010)
This is one part of the list. Further columns of the screen follow, without active or inactive calls. Compounds called inactive in the main read-out are mostly missing here. Potencies come from curve fits of mixed quality, noted in brackets.

Experiment: qHTS Assay for Lipid Storage Modulators in Drosophila S3 Cells;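 for cell number change: cells counted by Cell Tracker Red CMTPX staining in the red channel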
Conditions: BODIPY lipid droplet fluorescence, 18-24 h; for cell number change: measured here: cell count max response, cells fed with added oleic acid
Summary of the method: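 Drosophila S3 cells got compounds at several concentrations plus oleic acid (400 uM solution). Laser-scanning cytometry with 488 nm excitation read lipid droplets at 500-530 nm and cells at 575-640 nm. Percent activity was relative to 20 uM Triacsin C.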

[1] = measured here: cell number channel AC50, cells fed with added oleic acid
[2] = measured here: lipid fluorescence (Fed channel) AC50, cells fed with added oleic acid

| SMILES | cell number change [%] | AC50 [1] | AC50 [2] |
| --- | --- | --- | --- |
| Cc1ccc(COC(=O)c2nn(C)c(=O)c3ccccc23)cc1 | -13.3 | – | – |
| CC(C(=O)OCc1nnc(-c2ccccc2)o1)N1C(=O)c2ccccc2C1=O (stereo not given) | 13.4 | 6.51 µM [falling, single point] | – |
| c1ccc(CNc2ncnc3c2cnn3-c2ccccc2)cc1 | -11.5 | – | 29.1 µM [rising, single point] |
| CCCCn1c(SCC(=O)NCc2ccc(OC)c(C(=O)O)c2)nc2cc(S(N)(=O)=O)ccc21 | 22.4 | – | 35.5 µM [falling, single point] |
| Cc1ccc(C2c3[nH]c4ccccc4c3C[C@H]3C(=O)N(c4ccccc4C(=O)NCCCN4CCOCC4)C(=O)N23)cc1 (stereo not given in full) | 9.88 | – | – |
| COC(=O)CC1=NC(=O)CS1 | 4.91 | – | 29.1 µM [rising, single point] |
| CN(C)C(CNC(=O)C1CCCN(C(=O)c2ccc(Cl)cc2)C1)c1ccco1 (stereo not given) | -20.9 | 0.00411 µM [falling, full curve, poor fit] | – |
| CC(=O)CSc1nc2ccc(Nc3nc(N4CCOCC4)nc(N4CCOCC4)n3)cc2s1 | -18.8 | – | – |
| Cc1cc(C)c(S(=O)(=O)/N=C2\C=C(NS(=O)(=O)c3ccccc3)C(=O)c3ccccc32)c(C)c1 | -6.58 | – | 5.62 µM [rising, single point] |
| O=C(CSc1cccc2cccnc12)Nc1ccccc1F | -19.6 | – | 20.6 µM [falling, single point] |
| Cc1cccc(OCC(O)Cn2c(=N)n(Cc3ccccc3)c3ccccc32)c1 (stereo not given) | -70.2 | 29.1 µM [falling, single point] | 29.1 µM [falling, single point] |
| CC(=O)c1ccc(S(=O)(=O)N2CCN(C(=O)c3ccc(-n4nc(C)c(Cl)c4C)cc3)CC2)cc1 | -5.23 | – | 32.6 µM [falling, single point] |
| CC(NC(=O)c1cccc(S(=O)(=O)N2CCN(Cc3ccccc3)CC2)c1)c1ccc(Br)cc1 (stereo not given) | 26.8 | – | 0.00461 µM [rising, full curve, poor fit] |
| CC1CCCCC1NC(=O)c1cc(=O)[nH]c2ccccc12 (stereo not given) | 12 | – | – |
| CCc1ccc2[nH]c(=O)c(CN(CCCN3CCOCC3)C(=O)Nc3cccc(Cl)c3)cc2c1 | -5.36 | 2.91 µM [rising, single point] | 0.116 µM [rising, full curve, poor fit] |
| Cc1cccc(OCc2nnc(N)s2)c1C | 0.0585 | – | 2.59 µM [rising, full curve, poor fit] |
| COc1ccc(CCNC(=O)CN2CCN(Cc3ccccc3F)C2=O)cc1OC | -53.8 | 4.11 µM [falling, partial curve] | 29.1 µM [falling, single point] |
| Cc1ccc(S(=O)(=O)N(C)C)cc1NS(=O)(=O)c1ccc(Cl)s1 | – | – | 10.3 µM [falling, partial curve, poor fit] |
| N#C/C(=C1/C(=O)Nc2ccc(Br)cc21)c1ccccn1 | – | – | 3.66 µM [rising, partial curve, poor fit] |
| COc1ccc(C(=S)N2CCOCC2)cc1OC(=O)c1cc(OC)c(OC)c(OC)c1 | 7.89 | – | 35.5 µM [rising, single point] |
| COc1cc(-c2csc(CCn3nc(C)cc3C)n2)cc(OC)c1OC | 2.33 | – | – |

| SMILES | cell number change [%] | AC50 [1] | AC50 [2] |
| --- | --- | --- | --- |
| Cc1ccc(C(=O)n2nnc3ccccc32)cc1[N+](=O)[O-] | -14.7 | – | 0.103 µM [falling, full curve, poor fit] |
| Cc1ccc(S(=O)(=O)N2CCN(Cc3ccccn3)CC2)cc1 | 3.12 | – | 32.6 µM [falling, single point] |
| Cc1nnc(NC(=O)CN2CCN(Cc3ccc(F)cc3Cl)CC2)s1 | 29 | – | – |
| O=C(CCC(=O)Nc1nnc(C2CCCCC2)s1)NCC1CCCO1 (stereo not given) | -10.4 | 3.26 µM [falling, single point] | 6.51 µM [falling, single point] |
| O=C(Oc1nsnc1N1CCOCC1)N1CCOCC1 | -19.9 | – | 29.1 µM [falling, single point] |
| CCN(C(=O)CN1C(=O)S/C(=C\c2ccc(Cl)cc2)C1=O)C1CCS(=O)(=O)C1 (stereo not given) | 14.5 | – | 0.00517 µM [rising, full curve, poor fit] |
| CC(C)(C)C(=O)C(Oc1cccc2nonc12)n1cncn1 (stereo not given) | -13 | – | – |
| CCOc1cc(CNc2ccccc2SC)ccc1O | 5.54 | – | 0.00411 µM [falling, full curve, poor fit] |
| Cc1ccc(S(=O)(=O)Nc2cc3c(C(=O)O)c(C)oc3c3ccccc23)c(C)c1 | -2.99 | – | 3.66 µM [falling, single point] |
| COc1ccccc1S(=O)(=O)Cc1ccc(C(=O)N2CCN(c3cccc(Cl)c3)CC2)o1 | – | – | 0.58 µM [falling, full curve, poor fit] |
| Cc1ccc(N2C(=O)[C@@H]3C(C(=O)CN4C(=O)c5ccccc5C4=O)=NN[C@@H]3C2=O)c(C)c1 | 14.8 | 1.03 µM [rising, full curve, poor fit] | 0.731 µM [rising, partial curve] |
| OCC1(Cc2ccccc2)CCN(Cc2cnc(-c3ccc(Cl)cc3)nc2)CC1 | -37.5 | 25.9 µM [falling, single point] | 18.4 µM [falling, partial curve, poor fit] |
| Cc1cc(C)c2c(N)c(C(=O)NC3CCCC3)sc2n1 | -2.11 | 2.06 µM [rising, single point] | – |
| Cc1cc(C)n(-c2ccc(C(=O)N3CCN(S(=O)(=O)c4ccc(C(C)C)cc4)CC3)cc2)n1 | 0.0705 | – | 1.03 µM [rising, full curve, poor fit] |
| O=[N+]([O-])c1cc(C(F)(F)F)ccc1Sc1ccccn1 | 20.3 | – | 11.6 µM [rising, partial curve] |
| c1ccc(CN2CCC(N3CCC(N4CCCCCC4)CC3)CC2)cc1 | – | – | 0.651 µM [falling, partial curve, poor fit] |
| CN(CC(=O)NCC(c1ccccc1)N1CCCC1)S(=O)(=O)c1ccc(Cl)cc1 (stereo not given) | 14.5 | – | 0.13 µM [rising, full curve, poor fit] |
| C=CCSc1nnc(NC(=O)CSc2ccccn2)s1 | -18 | 0.116 µM [falling, full curve, poor fit] | – |
| Cc1noc(C)c1COc1ccc(C(=O)Nc2nnc(CC(C)C)s2)cc1 | -14.1 | – | 2.59 µM [falling, full curve] |
| OC(CNC1CCCc2ccccc21)COc1c(Cl)cccc1Cl (stereo not given) | -23 | – | 13 µM [falling, partial curve] |
| Cc1nc(N2CCCC2)c2nnn(Cc3ccccc3Cl)c2n1 | -19.9 | – | – |

| SMILES | cell number change [%] | AC50 [1] | AC50 [2] |
| --- | --- | --- | --- |
| Cc1ccc(OCCCOc2cccc3cccnc23)cc1C | -32.6 | 25.9 µM [falling, single point] | 32.6 µM [falling, single point] |
| O=C(NCC(=O)N(Cc1ccccc1)C(C(=O)NCC1CCCO1)c1ccccc1)c1ccco1 (stereo not given) | -2.56 | – | – |
| O=C(Nc1cccnc1)c1cc(Br)c(Br)s1 | -38.8 | 11.6 µM [falling, partial curve] | 0.00461 µM [falling, full curve, poor fit] |
| CCn1ccc(C(=O)Oc2ccc(C(C)C)cc2)n1 | – | – | 6.51 µM [falling, single point] |
| COc1ccc(N/N=C/c2c(C(=O)O)ccc3ccccc23)cc1 | -11.2 | – | 29.1 µM [falling, single point] |
| CC(C)c1ccc(NC(=O)COc2ccccc2)cc1 | -0.275 | – | – |
| CCCN1CCC(=O)N([C@H](CSc2ccccc2)c2ccccc2)CC1 | -23.6 | – | 29.1 µM [falling, single point] |
| CCn1c(NCCO)nc2c(c1=O)C(C)(CC)Cc1ccccc1-2 (stereo not given) | -41 | 6.51 µM [falling, partial curve] | 6.51 µM [falling, single point] |
| CC(=O)c1c(C)[nH]c(C(=O)CSc2nnc(CN3CCCCCC3=O)n2-c2ccccn2)c1C | -2.52 | – | 14.6 µM [rising, single point] |
| CN(Cc1ccccn1)C(=O)c1ccc2nc(Cc3cccc(Cl)c3)oc2c1 | -1.47 | – | 29.1 µM [falling, single point] |
| O=C(NC12CC3CC(CC(C3)C1)C2)C1CC(=O)N(c2ccccc2)C1 (stereo not given) | -19.2 | – | 8.2 µM [falling, partial curve] |
| NC(=S)N/N=C/c1ccccc1[N+](=O)[O-] | 21.5 | – | 29.1 µM [rising, single point] |
| CC(C)(C)c1cc(NC(=O)c2c(F)cccc2Cl)n(-c2ccccc2)n1 | -24.4 | – | – |
| O=C(OCCN1CCOCC1)c1cccc(F)c1 | -1.01 | – | – |
| CC(C)[C@H](NS(=O)(=O)c1ccccc1)C(=O)OCC(=O)Nc1ccc2c(c1)OCO2 | 25.5 | 6.51 µM [rising, single point] | 0.13 µM [rising, full curve, poor fit] |
| Cc1cccc(N2CCN(C(=O)c3ccncc3)CC2)c1C | -20.8 | – | – |
| CNc1ccc2c3c(cccc13)C(=O)N(C)C2=O | -91.6 | 8.2 µM [falling, partial curve] | 2.06 µM [falling, partial curve, poor fit] |
| COC(=O)c1cc2cc(OC)ccc2n1C | -15 | – | 1.16 µM [falling, single point] |
| Nc1ncnc2nc(SCCC(=O)O)[nH]c12 | -22.7 | – | 1.46 µM [falling, partial curve] |

Reformatted: 4 of the compounds above.
SMILES | cell number change [%] | AC50 [1] | AC50 [2]
CCn1ccc(C(=O)Oc2ccc(C(C)C)cc2)n1 | – | – | 6.51 µM [falling, single point]
COc1ccc(N/N=C/c2c(C(=O)O)ccc3ccccc23)cc1 | -11.2 | – | 29.1 µM [falling, single point]
CC(C)c1ccc(NC(=O)COc2ccccc2)cc1 | -0.275 | – | –
CCCN1CCC(=O)N([C@H](CSc2ccccc2)c2ccccc2)CC1 | -23.6 | – | 29.1 µM [falling, single point]
